The supplement of paper PMC12067093, “Discovery and optimisation of a covalent ligand for TRIM25 and its application to targeted protein ubiquitination” (Chemical Science, 2025)
The list shows a part of the results.

The chains behind the UniProt entries cited, without tags or fusion partners. Where a name states a change or a piece, a line headed by the entry shows the natural chain unless it says otherwise.
UniProt Q14191, whole entry, looked up: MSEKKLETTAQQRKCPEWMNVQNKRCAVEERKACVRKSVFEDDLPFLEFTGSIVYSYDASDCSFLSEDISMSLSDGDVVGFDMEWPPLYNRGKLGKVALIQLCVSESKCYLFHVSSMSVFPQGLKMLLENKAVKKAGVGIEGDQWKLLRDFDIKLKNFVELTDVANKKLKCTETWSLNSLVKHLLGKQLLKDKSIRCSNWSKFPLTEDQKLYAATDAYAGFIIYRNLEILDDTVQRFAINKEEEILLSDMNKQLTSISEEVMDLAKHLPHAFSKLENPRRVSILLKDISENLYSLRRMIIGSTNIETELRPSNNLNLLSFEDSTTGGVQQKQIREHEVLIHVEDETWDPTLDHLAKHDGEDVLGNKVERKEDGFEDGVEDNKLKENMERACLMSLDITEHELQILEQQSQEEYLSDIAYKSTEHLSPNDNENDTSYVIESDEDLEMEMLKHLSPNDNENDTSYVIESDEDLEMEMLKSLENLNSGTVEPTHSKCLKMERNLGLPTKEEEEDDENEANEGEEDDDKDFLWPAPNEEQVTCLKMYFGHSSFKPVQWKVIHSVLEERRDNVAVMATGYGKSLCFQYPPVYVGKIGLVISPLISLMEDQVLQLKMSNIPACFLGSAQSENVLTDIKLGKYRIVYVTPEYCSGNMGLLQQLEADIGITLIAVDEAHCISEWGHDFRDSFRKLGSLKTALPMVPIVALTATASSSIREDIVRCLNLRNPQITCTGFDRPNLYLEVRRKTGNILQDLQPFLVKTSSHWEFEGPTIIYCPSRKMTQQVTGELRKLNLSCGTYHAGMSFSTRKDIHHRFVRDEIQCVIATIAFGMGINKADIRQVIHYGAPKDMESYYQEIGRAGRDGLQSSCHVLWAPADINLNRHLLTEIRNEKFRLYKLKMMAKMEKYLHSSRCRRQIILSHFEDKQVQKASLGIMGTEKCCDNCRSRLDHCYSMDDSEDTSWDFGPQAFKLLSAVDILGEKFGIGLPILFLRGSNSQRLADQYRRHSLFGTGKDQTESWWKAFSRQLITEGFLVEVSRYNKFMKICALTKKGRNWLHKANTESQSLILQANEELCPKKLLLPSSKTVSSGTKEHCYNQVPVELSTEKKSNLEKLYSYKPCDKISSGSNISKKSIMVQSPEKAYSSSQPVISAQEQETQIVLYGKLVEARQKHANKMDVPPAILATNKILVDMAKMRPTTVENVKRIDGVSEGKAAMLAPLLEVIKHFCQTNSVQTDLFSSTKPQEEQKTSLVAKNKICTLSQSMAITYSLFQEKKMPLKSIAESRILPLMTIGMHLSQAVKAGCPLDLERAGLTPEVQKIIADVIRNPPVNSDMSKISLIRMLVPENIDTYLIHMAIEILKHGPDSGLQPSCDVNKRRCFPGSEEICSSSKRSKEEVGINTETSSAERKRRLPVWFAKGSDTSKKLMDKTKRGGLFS
UniProt Q9HAD4: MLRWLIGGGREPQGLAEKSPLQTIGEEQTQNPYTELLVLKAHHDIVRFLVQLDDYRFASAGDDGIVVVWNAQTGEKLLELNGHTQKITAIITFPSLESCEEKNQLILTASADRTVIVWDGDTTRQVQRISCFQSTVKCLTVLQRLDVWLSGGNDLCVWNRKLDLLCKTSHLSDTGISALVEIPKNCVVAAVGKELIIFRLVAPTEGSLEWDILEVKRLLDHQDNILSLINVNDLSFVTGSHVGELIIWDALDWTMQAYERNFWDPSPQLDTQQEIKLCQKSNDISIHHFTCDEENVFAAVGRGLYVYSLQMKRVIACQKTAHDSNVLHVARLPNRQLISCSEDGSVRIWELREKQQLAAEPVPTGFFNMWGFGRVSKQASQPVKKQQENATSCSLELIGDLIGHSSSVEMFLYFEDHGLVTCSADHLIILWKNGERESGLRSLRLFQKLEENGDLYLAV
UniProt Q8IWA0: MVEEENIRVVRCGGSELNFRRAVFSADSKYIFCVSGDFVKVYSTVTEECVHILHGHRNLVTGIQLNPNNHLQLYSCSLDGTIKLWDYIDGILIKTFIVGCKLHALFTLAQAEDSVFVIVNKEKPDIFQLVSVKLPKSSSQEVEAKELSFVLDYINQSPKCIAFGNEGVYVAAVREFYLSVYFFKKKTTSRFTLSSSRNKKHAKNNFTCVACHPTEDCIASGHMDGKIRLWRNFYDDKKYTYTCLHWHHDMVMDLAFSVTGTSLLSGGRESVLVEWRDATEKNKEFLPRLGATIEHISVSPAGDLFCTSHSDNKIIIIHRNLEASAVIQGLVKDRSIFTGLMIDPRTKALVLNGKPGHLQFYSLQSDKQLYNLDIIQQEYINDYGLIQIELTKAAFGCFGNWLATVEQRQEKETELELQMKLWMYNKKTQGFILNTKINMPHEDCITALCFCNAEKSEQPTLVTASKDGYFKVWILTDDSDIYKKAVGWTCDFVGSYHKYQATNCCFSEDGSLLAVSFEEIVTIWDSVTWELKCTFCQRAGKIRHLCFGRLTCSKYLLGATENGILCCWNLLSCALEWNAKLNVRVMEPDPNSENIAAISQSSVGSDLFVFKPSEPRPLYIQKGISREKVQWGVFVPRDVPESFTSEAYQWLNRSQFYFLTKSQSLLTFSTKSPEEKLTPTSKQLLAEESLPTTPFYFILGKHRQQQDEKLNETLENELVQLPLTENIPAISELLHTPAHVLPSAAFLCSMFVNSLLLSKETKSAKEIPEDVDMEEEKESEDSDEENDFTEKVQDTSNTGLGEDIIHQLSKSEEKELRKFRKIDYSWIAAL
UniProt Q9BZH6: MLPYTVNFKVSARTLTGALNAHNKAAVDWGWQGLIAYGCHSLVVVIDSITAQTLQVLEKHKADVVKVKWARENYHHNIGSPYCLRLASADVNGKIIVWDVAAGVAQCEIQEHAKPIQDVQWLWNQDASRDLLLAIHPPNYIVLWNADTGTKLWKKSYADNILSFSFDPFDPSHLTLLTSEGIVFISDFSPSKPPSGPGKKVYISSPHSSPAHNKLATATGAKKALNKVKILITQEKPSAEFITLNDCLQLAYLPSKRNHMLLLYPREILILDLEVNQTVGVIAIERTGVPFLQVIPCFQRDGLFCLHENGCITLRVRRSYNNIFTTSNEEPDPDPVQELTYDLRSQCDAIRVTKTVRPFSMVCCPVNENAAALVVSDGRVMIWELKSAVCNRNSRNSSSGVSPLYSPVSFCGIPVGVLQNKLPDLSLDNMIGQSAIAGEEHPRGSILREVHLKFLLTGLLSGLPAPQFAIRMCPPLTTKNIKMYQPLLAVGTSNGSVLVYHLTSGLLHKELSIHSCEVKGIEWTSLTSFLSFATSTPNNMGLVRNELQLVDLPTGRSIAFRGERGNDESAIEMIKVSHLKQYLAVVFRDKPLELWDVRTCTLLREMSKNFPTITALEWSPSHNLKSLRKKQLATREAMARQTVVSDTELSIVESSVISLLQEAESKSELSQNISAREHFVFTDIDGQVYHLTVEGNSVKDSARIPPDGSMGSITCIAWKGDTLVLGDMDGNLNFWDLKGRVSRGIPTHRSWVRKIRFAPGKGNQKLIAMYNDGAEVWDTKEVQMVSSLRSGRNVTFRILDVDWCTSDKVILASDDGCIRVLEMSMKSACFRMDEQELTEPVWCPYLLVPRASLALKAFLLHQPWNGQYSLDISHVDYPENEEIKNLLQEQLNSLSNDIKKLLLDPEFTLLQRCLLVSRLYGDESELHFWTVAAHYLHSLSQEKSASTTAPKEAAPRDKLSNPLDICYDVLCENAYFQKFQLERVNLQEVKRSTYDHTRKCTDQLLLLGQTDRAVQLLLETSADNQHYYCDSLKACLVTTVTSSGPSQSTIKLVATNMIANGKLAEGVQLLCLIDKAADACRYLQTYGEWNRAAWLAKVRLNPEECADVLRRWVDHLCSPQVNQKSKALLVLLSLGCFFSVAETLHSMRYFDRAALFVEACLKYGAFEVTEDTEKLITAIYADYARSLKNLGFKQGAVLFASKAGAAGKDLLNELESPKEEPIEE
UniProt Q12768: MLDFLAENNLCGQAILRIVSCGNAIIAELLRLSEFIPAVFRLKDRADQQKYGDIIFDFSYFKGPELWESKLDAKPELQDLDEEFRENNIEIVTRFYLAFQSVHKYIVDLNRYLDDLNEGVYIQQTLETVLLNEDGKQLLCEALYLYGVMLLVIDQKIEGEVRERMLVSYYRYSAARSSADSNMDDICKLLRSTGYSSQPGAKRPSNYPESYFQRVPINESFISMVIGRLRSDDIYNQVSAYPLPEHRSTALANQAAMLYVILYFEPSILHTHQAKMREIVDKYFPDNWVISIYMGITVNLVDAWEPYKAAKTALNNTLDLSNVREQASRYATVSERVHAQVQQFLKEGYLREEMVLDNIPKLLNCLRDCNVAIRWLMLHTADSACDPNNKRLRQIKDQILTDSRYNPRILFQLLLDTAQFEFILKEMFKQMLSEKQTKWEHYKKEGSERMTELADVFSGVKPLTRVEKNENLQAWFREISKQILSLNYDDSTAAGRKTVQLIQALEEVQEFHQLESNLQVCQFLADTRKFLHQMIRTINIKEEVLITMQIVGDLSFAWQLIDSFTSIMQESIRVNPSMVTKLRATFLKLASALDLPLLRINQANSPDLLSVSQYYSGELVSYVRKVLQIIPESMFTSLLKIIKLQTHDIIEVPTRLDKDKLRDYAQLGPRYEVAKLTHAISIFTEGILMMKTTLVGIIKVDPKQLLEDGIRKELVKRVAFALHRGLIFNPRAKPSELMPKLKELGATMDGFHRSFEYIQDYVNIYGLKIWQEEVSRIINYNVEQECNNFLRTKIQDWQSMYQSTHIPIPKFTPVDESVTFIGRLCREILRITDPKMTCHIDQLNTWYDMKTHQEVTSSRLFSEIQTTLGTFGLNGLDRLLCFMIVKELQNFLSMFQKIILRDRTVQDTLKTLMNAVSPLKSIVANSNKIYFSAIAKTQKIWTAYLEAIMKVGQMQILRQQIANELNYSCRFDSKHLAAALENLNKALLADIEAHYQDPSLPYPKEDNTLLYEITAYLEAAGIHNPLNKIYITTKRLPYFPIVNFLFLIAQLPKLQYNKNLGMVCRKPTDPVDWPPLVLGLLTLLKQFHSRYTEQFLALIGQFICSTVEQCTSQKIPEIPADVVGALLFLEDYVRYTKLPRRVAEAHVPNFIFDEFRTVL
UniProt Q9H1Z4: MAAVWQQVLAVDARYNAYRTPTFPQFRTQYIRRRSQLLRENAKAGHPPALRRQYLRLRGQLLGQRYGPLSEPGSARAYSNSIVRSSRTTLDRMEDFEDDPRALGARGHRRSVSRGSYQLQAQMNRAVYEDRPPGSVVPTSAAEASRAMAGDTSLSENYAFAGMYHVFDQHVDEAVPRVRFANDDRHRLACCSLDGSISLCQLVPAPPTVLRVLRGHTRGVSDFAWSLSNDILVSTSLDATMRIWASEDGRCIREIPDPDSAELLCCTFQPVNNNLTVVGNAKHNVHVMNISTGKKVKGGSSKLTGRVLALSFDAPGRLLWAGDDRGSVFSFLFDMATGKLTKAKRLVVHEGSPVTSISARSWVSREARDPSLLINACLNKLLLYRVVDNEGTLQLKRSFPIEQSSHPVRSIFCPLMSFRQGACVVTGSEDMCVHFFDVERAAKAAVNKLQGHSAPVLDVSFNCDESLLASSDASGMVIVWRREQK
UniProt Q9UNX4: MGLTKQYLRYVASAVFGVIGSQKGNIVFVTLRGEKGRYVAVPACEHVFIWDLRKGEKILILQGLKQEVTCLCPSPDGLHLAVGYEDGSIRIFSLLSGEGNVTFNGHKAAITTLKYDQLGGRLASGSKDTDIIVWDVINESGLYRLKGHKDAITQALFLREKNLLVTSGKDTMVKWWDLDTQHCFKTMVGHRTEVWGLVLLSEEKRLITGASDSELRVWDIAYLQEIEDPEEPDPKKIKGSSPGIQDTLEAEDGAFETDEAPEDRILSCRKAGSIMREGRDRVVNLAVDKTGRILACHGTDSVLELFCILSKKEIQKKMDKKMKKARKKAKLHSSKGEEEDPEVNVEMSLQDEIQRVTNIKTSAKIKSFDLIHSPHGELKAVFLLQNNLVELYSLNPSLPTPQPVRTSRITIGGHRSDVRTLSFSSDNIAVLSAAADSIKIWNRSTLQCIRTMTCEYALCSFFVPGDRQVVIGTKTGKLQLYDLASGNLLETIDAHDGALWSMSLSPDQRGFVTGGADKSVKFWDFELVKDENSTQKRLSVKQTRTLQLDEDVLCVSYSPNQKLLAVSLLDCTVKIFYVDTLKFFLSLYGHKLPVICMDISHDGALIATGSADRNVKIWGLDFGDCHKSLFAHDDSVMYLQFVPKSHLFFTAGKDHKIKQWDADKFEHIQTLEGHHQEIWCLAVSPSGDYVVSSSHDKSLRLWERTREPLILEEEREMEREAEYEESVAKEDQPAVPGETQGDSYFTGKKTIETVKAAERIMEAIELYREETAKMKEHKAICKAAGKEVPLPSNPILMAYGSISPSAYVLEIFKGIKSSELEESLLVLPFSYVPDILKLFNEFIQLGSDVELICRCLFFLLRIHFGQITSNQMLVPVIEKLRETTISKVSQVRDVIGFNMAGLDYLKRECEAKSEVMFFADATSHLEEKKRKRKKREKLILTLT

Compound: CC1Cc2ccccc2N1C(=O)C1CCCN(C1)C(=O)CCl (mixture of isomers) [TRIM25 ligand 11 (diastereomer mixture)]
Experiment: probe-labelled cysteine peptide fold change vs DMSO (competition) (log2 fold change); higher = less target engagement (more negative = stronger competition)
Details: THP-1, incubation time: 4 h
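Further: competitive chemoproteomic profiling in live THP-1 cells with an iodoacetamide desthiobiotin (IA-DTB) probe, comparing probe-labelled peptide intensities in compound-treated cells against DMSO-treated controls.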

Target	probe-labelled cysteine peptide fold change (10 µM)	probe-labelled cysteine peptide fold change (50 µM)
WDR46_O15213_172_ICQADIVEAVDIASAAK (UniProt O15213)	0.178	0.132
WDR6_Q9NNW5_254_VQNIGHCFGHSAR (UniProt Q9NNW5)	0.181	0.0389
WDHD1_O75717_773_MLALSCK (UniProt O75717)	0.00854	0.00645
WRN_Q14191_197_CSNWSK (UniProt Q14191)	0.0253	-0.223
WDR81_Q562E7_130_LSYPLGGGLPFEDGSCGPETLTR (UniProt Q562E7)	0.039	-0.0489
WDR12_Q9GZL7_205_FCSGSWDK (UniProt Q9GZL7)	-0.0737	-0.0151
WDR91_A4D1P6_512_ILSLACSPNGASFVCSAAAPSLTSQVDFSAPDIGSK (UniProt A4D1P6)	-0.00541	0.064
WDR81_Q562E7_765_VQPAVPLQCLLHR (UniProt Q562E7)	-0.0215	-0.053
WDR1_O75083_507_GPVTDVAYSHDGAFLAVCDASK (UniProt O75083)	0.0917	0.0234
WDR1_O75083_382_MTVDESGQLISCSMDDTVR (UniProt O75083)	0.177	0.243
WDR81_Q562E7_1715_SVFFVGQLEAPQHVVSCDGAVHVWDPFTGK (UniProt Q562E7)	0.0743	0.0532
WDR55_Q9H6Y2_268_AESIDCMVPVTESLLCTGSTDGVIR (UniProt Q9H6Y2)	0.00997	0.341
WDR76_Q9H967_214_RENGIGCR (UniProt Q9H967)	-0.0382	-0.13
WDR1_O75083_225_VCALGGSK (UniProt O75083)	0.0155	0.0103
XPA_P23025_126+129_EFMDSYLMNHFDLPTCDNCR (UniProt P23025)	0.169	0.182
WDR41_Q9HAD4_99_ITAIITFPSLESCEEK (UniProt Q9HAD4)	0.257	0.0289
WRN_Q14191_1090_EHCYNQVPVELSTEK (UniProt Q14191)	-0.0759	-0.0634
WDR75_Q8IWA0_546_HLCFGR (UniProt Q8IWA0)	0.115	0.227
WDR11_Q9BZH6_107_IIVWDVAAGVAQCEIQEHAK (UniProt Q9BZH6)	0.176	0.0832

Reprinted at random: 2 entries already listed.
Target	probe-labelled cysteine peptide fold change (10 µM)	probe-labelled cysteine peptide fold change (50 µM)
WRN_Q14191_197_CSNWSK (UniProt Q14191)	0.0253	-0.223
WDR81_Q562E7_765_VQPAVPLQCLLHR (UniProt Q562E7)	-0.0215	-0.053

The results go on.

Target	probe-labelled cysteine peptide fold change (10 µM)	probe-labelled cysteine peptide fold change (50 µM)
XPC_Q01831_814_KLDIDCVQAITGFDFHGGYSHPVTDGYIVCEEFK (UniProt Q01831)	-0.0239	0.00756
WDR41_Q9HAD4_291_SNDISIHHFTCDEENVFAAVGR (UniProt Q9HAD4)	0.286	0.149
WASHC5_Q12768_385_WLMLHTADSACDPNNKR (UniProt Q12768)	-0.125	-0.131
WDR37_Q9Y2I8_8_PTESASCSTAR (UniProt Q9Y2I8)	0.112	0.277
WDR26_Q9H7D7_259_IHVLSGYLMCSHAEDLR (UniProt Q9H7D7)	0.0138	-0.0331
WDR13_Q9H1Z4_432_QGACVVTGSEDMCVHFFDVER (UniProt Q9H1Z4)	-0.0252	-0.0484
WDFY3_Q8IZQ1_16_QEECSPQDNALGLMHLR (UniProt Q8IZQ1)	0.018	-0.149
WDR4_P57081_95_TKPWQCLSVR (UniProt P57081)	-0.0725	-0.0752
WWP2_O00308_506_FLCHSNALPSHVK (UniProt O00308)	0.0753	0.167
WDR11_Q9BZH6_1071_LAEGVQLLCLIDK (UniProt Q9BZH6)	0.0963	0.0498
WDFY1_Q8IWB7_317_CGQAVCGK (UniProt Q8IWB7)	-0.0639	-0.00879
WDR3_Q9UNX4_44_YVAVPACEHVFIWDLR (UniProt Q9UNX4)	0.264	0.237
WDR26_Q9H7D7_338_LDNNLDSVSLLIDHVCSR (UniProt Q9H7D7)	-0.068	0.135
WDFY4_Q6ZS81_2449_HCLSNISDPFIFNLCSK (UniProt Q6ZS81)	-0.0629	-0.243
WDR75_Q8IWA0_444+451_INMPHEDCITALCFCNAEK (UniProt Q8IWA0)	-0.0385	0.021
WDR3_Q9UNX4_307_ILACHGTDSVLELFCILSK (UniProt Q9UNX4)	-0.0274	-0.132
XIAP_P98170_474_QCAEAVDK (UniProt P98170)	-0.0754	0.139
WDR3_Q9UNX4_296_ILACHGTDSVLELFCILSK (UniProt Q9UNX4)	0.00194	-0.13
WASHC5_Q12768_838_MTCHIDQLNTWYDMK (UniProt Q12768)	0.0216	-0.00847
